Measurements: PubChem BioAssay AID540256 (National Center for Advancing Translational Sciences (NCATS), 2011)
Several values for one entry are separate records, joined by “and”; a condition that tells them apart may be missing. Equal values may be shown once. Hit rate of the full screen: of about 300,000 compounds, about 3,700 (1.2%) were called active. The inconclusive results got no clear call from the source; some entries with a clear call stand among them for comparison. Calls come from the whole dose curve; tested in HEK293 cells. Potencies beside an inconclusive call are fits to weak or partial responses and may not hold up.

assay: qHTS for Inhibitors of binding or entry into cells for Lassa Virus; details: Lassa virus pseudotype entry inhibition, cell reporter; series mostly up to 37.9 µM; note: nearly all actives have a fitted effect of over 50% in size
Potency is the fitted concentration of half-maximal effect.

SMILES	Potency
Fc1ccccc1-c1ccc(/C=N/Nc2nc3ccccc3[nH]2)o1	inconclusive: 32.6 µM [inhibitor, single point]
O=C(O)c1ccc(N2C(=O)Nc3ccccc3N2O)cc1	inconclusive: 35.5 µM [inhibitor, partial curve, poor fit]
N/C(=N\OC(=O)CCCc1ccccc1)c1ccccn1	inconclusive: 17.8 µM [activator, single point]
CCOC(=O)CNC(=O)CSc1nnc(NC(=O)c2ccc(C)cc2)s1	inconclusive: 17.8 µM [inhibitor, partial curve, poor fit]
COc1ccc(-c2noc(Cc3ccc(Cl)cc3)n2)cc1OC	inconclusive: 29.1 µM [inhibitor, partial curve, poor fit]
CCc1cc2c(s1)N(CC(=O)OC)C(=O)CN=C2c1ccccc1OC	inactive
C=CCn1c(SCc2ccc(Cl)cc2)nc2c1c(=O)[nH]c(=O)n2C	inconclusive: 11.2 µM [inhibitor, partial curve]
O=C(O)Cn1nnc(-c2ccc(OCc3cccc(C(F)(F)F)c3)cc2)n1	inconclusive: 6.31 µM [inhibitor, single point]
CS(=O)(=O)c1ccc2nc(NC(=O)c3cccc(Cl)c3)sc2c1	inconclusive: 5.01 µM [activator, partial curve, poor fit]
Nc1cc(N)nc(SCCc2ccccc2)n1	inactive
COCCn1c(SCC(=O)Nc2ccc(C)cc2)nc2c(oc3ccccc32)c1=O	inactive
CCCc1c(NC(=O)Nc2ccc(F)cc2)cnn1-c1ccc(Cl)cc1	active: 5.01 µM
COc1ccc(C(=O)O)cc1S(=O)(=O)N(C)C	inconclusive: 8.91 µM [activator, partial curve, poor fit]
Cc1cccc(OCCCSc2nc3ccc(C)cc3[nH]2)c1	inconclusive: 11.2 µM [activator, partial curve, poor fit]
O=C(Cn1cc(COc2ccc(-c3ccc(Br)cc3)cc2)nn1)c1ccc(O)cc1	inconclusive: 4.45 µM [inhibitor, partial curve, poor fit]
CN(C)C(=O)OC1CNC(C#Cc2cc3ncnc(Nc4ccc(OCc5cccc(F)c5)c(Cl)c4)c3s2)C1 (centres undefined)	active: 1.99 µM and active: 4.99 µM
CCc1nc2c(oc3ccccc32)c(=O)[nH]1	inactive
O=S(Cc1ccc(Br)cc1)Cc1nnc(SCc2c(F)cccc2Cl)n1-c1ccccc1 (centres undefined)	inconclusive: 14.6 µM [inhibitor, partial curve, poor fit]
CNCCC=C1c2ccccc2CCc2ccccc21	active: 20.6 µM
CN(c1ccc(O)cc1)c1nc(-c2ccccc2)cs1	inconclusive: 18.4 µM [inhibitor, partial curve, poor fit]
CCOc1ccc(N(CC(=O)N2CCCCCC2)S(=O)(=O)c2ccc(C)cc2)cc1	active: 3.55 µM
Cc1ccc(-c2ccc(C(=O)NCc3ccccc3)o2)c2ccccc12	active: 2.5 µM and active: 6.51 µM
COc1cccc(-c2nc(NCC3CCCO3)c3ccccc3n2)c1O (centres undefined)	inconclusive: 35.5 µM [inhibitor, single point]

SMILES	Potency
CCCC1=Nc2cc(C(=O)NC3CCCC3)ccc2Sc2ccc(C)cc21	inconclusive: 3.98 µM [inhibitor, full curve, poor fit]
CC1(C(=O)O)C2CCC(O2)C1(C)C(=O)O (centres undefined)	active: 3.26 µM
CC(C)(C)c1nc2ccc([N+](=O)[O-])cc2[nH]1	inconclusive: 5.62 µM [inhibitor, single point]
CCOC(=O)CC(NC(=O)Cn1nnc(-c2ccc(C(F)(F)F)cc2)n1)c1ccc(OC)cc1 (centres undefined)	inactive
COc1ccc(C(NC(=O)/C=C/c2ccco2)c2ccc(OC)cc2)cc1	inconclusive: 6.31 µM [inhibitor, single point]
COc1ccc(C)cc1NC(=O)c1ccc2c(SCC(=O)O)c3c(nc2c1)CCCC3	inconclusive: 2.82 µM [activator, partial curve, poor fit]
CC1C(=O)N(Cc2cn(Cc3ccco3)nn2)CCS(=O)(=O)N1Cc1ccc(-c2cccc(CO)c2)cc1 (centres undefined)	inactive
O=C(Nc1ccc(C2CCCCC2)cc1)C1CCN(c2ncccn2)CC1	inconclusive: 0.164 µM [inhibitor, single point]
O=C(CSc1nnc2ccccn12)c1ccc(Cl)cc1	inconclusive: 6.51 µM [activator, partial curve, poor fit]
COc1ccc(CN2CCCCC2C)cc1OC (centres undefined)	inconclusive: 7.3 µM [inhibitor, partial curve, poor fit]
COc1cc2c(cc1OC)C1(CCCC1)C(N)=C2C#N	inconclusive: 8.91 µM [inhibitor, partial curve]
O=Cc1cn(CC(=O)Nc2ccc3c(c2)OCO3)c2ccccc12	inconclusive: 17.8 µM [inhibitor, single point]
COc1cccc2c1OCC/C2=N\NC(=O)C(C)Oc1ccc([N+](=O)[O-])cc1 (centres undefined)	inactive
COc1cc(C#N)ccc1OCC(=O)N1CCc2ccccc2C1	inactive
CCOC(=O)C1=C(COC(=O)/C=C/c2ccc(OCC)c(OC)c2)NC(=O)NC1C (centres undefined)	inconclusive: 35.5 µM [inhibitor, partial curve, poor fit]
CN1C(=O)N(C)c2ccc(C=O)c3cccc1c23	inconclusive: 0.891 µM [inhibitor, full curve, poor fit]
Cc1cccc(NC2=C(NCCO)C(=O)c3ccccc3C2=O)c1	inactive
Cn1nc(-c2ccc(OCC(=O)N3CCN(Cc4ccccc4)CC3)cc2)c2ccccc2c1=O	inactive
Cc1cc(NC(=O)c2ccc(F)cc2)n(-c2ccccn2)n1	inconclusive: 1.26 µM [inhibitor, single point]
CCCCCCn1c(=O)c(C(=O)Nc2cnccn2)c(O)c2ccccc21	inconclusive: 5.01 µM [inhibitor, single point]
O=C(Nc1cccc(Cl)c1N1CCOCC1)c1cccnc1Cl	inactive
CCCOC(=O)CCn1c(=S)oc2ccccc21	inconclusive: 3.26 µM [activator, full curve, poor fit]
CC(=O)N1CCN(c2nc(CC(C)C)c3c(c2C#N)CCC3)CC1	inconclusive: 1.12 µM [inhibitor, single point]

SMILES	Potency
O=C(NNC(=O)c1ccccc1Cl)c1ccccc1Cl	inactive
CSC1=C(C#N)C(c2cccc(Br)c2)CC(=O)N1 (centres undefined)	inconclusive: 0.082 µM [inhibitor, full curve, poor fit]
CCN(CC)c1ccc(N=Cc2ccccc2[N+](=O)[O-])cc1	inconclusive: 20.6 µM [inhibitor, partial curve, poor fit]
Cc1nn(C)c2ncc(C(N)=O)c(Oc3ccc(Cl)cc3)c12	inconclusive: 1 µM [inhibitor, partial curve, poor fit]
O=c1[nH]c(=O)n(CCC2=CCCCC2)c(O)c1/C=N/Nc1ccccc1	inconclusive: 11.2 µM [inhibitor, partial curve, poor fit]
CCOC(=O)/C(=C\c1cccnc1)C(=O)c1cc(C(C)=O)c(Nc2ccccc2)s1	inconclusive: 1 µM [inhibitor, full curve, poor fit]
COc1cccc(C(=O)Nc2ccccc2C(=O)OCc2cc(=O)n3nc(C4CC4)sc3n2)c1	inactive
N#C/C(=C\c1ccccc1C(F)(F)F)C(=O)Nc1ccccc1	inactive
O=C(Nc1cccc2nsnc12)c1cccs1	inconclusive: 20.6 µM [activator, single point]
Cc1ccccc1CN1C(=O)/C(=C\c2ccc(C(=O)NCCN3CCOCC3)cc2)Sc2ccccc21	inconclusive: 35.5 µM [inhibitor, single point]
COc1ccccc1CNC(=S)NCCc1ccccc1	inactive
O=S(=O)(NCc1ccc(F)cc1)c1ccc(-c2cnc(C3CC3)o2)cc1	inconclusive: 11.2 µM [inhibitor, partial curve, poor fit]
COc1ccc(C(=O)Nc2ccc3[nH]ccc3c2)cc1OC	inconclusive: 15.8 µM [inhibitor, single point]
COc1ccccc1N1CC(C)(C)C(=O)N(C(=O)c2ccc(Cl)cc2)C1=S	inconclusive: 22.4 µM [inhibitor, single point]
COc1cccc2cc(-c3nc4ccccc4o3)c(=O)oc12	inconclusive: 6.31 µM [activator, partial curve, poor fit]
Cc1onc(-c2ccccc2Cl)c1C(=O)Nc1cccc2nsnc12	inactive
CCOC(=O)c1cnc(SCC(=O)Nc2sc(C)c(C)c2C#N)nc1N	inconclusive: 16.4 µM [inhibitor, partial curve, poor fit]
Cc1cc(C(=O)Nc2sc(C)c(C)c2C#N)c(C)o1	inactive
COc1ccc(-c2nc(CSCC(=O)N3CCN(c4cccc(C)c4C)CC3)c(C)o2)cc1OC	inconclusive: 25.1 µM [inhibitor, single point]
Cc1ccc(Sc2oc(/C=N/n3cnnc3)cc2Br)cc1	inconclusive: 32.6 µM [inhibitor, partial curve, poor fit]
CC(=O)c1ccc(NC(=S)NC(C)c2ccc(Cl)cc2Cl)cc1 (centres undefined)	inconclusive: 35.5 µM [inhibitor, single point]
CCN(CC)CCCNC(=O)CN1C(=O)CCn2nc(-c3cn(C)c4ccccc34)cc21	inactive
N/C(=N\OC(=O)Oc1ccccc1)c1ccc(Br)cc1	inactive

Compounds above that have a COOH group:
SMILES	Potency
O=C(O)c1ccc(N2C(=O)Nc3ccccc3N2O)cc1	inconclusive: 35.5 µM [inhibitor, partial curve, poor fit]
O=C(O)Cn1nnc(-c2ccc(OCc3cccc(C(F)(F)F)c3)cc2)n1	inconclusive: 6.31 µM [inhibitor, single point]
COc1ccc(C(=O)O)cc1S(=O)(=O)N(C)C	inconclusive: 8.91 µM [activator, partial curve, poor fit]
CC1(C(=O)O)C2CCC(O2)C1(C)C(=O)O (centres undefined)	active: 3.26 µM
COc1ccc(C)cc1NC(=O)c1ccc2c(SCC(=O)O)c3c(nc2c1)CCCC3	inconclusive: 2.82 µM [activator, partial curve, poor fit]
